This list was built around the results that the source calls inconclusive (neither active nor inactive); the mix of calls is not that of the screen. Potencies of inconclusive entries are doubtful fits and often do not repeat. Calls of active or inactive are those of the source. Calls come from the whole dose curve.
What was measured:
[1] = biological target: Polyprotein P1234 (Chikungunya virus (strain S27-African prototype)) (UniProt Q8JUX6); assay: Selectivity profile for inhibitors of NSP2Pro chikungunya virus (CHIKV): Endogenous NS2/3 peptide Counterscreen (AID 1964103); conditions: Purified CHIKV nsP2 protease, endogenous NS2/3 peptide cleavage; series mostly up to 51 µM; note: nearly all actives have a fitted effect of over 55% in size
[2] = tested on: Hepatitis C virus NS3/4A protease; assay: Selectivity profile for inhibitors of NSP2Pro chikungunya virus (CHIKV): NS34A-HCV Counterscreen (AID 1964106); conditions: HCV NS3/4A protease biochemical counterscreen; series mostly up to 50.9 µM; note: nearly all actives have a fitted effect of over 55% in size
Papain (Carica papaya) = Papain (Carica papaya) (UniProt P00784); assay: Selectivity profile for inhibitors of NSP2Pro chikungunya virus (CHIKV): Papain Counterscreen (AID 1964104); conditions: purified papain protease activity, enzymatic inhibition; series mostly up to 51 µM
[3] = tested on: Chikungunya virus nsP2 protease; assay: Confirmatory qHTS for inhibitors of NSP2Pro chikungunya virus (CHIKV) (AID 1964105); conditions: CHIKV nsP2 protease enzymatic activity; series mostly up to 25.5 µM; note: nearly all actives have a fitted effect of over 75% in size
Potency is the fitted concentration of half-maximal effect.

The chains behind the UniProt entries cited, without tags or fusion partners. Where a name states a change or a piece, a line headed by the entry shows the natural chain unless it says otherwise.
UniProt Q8JUX6: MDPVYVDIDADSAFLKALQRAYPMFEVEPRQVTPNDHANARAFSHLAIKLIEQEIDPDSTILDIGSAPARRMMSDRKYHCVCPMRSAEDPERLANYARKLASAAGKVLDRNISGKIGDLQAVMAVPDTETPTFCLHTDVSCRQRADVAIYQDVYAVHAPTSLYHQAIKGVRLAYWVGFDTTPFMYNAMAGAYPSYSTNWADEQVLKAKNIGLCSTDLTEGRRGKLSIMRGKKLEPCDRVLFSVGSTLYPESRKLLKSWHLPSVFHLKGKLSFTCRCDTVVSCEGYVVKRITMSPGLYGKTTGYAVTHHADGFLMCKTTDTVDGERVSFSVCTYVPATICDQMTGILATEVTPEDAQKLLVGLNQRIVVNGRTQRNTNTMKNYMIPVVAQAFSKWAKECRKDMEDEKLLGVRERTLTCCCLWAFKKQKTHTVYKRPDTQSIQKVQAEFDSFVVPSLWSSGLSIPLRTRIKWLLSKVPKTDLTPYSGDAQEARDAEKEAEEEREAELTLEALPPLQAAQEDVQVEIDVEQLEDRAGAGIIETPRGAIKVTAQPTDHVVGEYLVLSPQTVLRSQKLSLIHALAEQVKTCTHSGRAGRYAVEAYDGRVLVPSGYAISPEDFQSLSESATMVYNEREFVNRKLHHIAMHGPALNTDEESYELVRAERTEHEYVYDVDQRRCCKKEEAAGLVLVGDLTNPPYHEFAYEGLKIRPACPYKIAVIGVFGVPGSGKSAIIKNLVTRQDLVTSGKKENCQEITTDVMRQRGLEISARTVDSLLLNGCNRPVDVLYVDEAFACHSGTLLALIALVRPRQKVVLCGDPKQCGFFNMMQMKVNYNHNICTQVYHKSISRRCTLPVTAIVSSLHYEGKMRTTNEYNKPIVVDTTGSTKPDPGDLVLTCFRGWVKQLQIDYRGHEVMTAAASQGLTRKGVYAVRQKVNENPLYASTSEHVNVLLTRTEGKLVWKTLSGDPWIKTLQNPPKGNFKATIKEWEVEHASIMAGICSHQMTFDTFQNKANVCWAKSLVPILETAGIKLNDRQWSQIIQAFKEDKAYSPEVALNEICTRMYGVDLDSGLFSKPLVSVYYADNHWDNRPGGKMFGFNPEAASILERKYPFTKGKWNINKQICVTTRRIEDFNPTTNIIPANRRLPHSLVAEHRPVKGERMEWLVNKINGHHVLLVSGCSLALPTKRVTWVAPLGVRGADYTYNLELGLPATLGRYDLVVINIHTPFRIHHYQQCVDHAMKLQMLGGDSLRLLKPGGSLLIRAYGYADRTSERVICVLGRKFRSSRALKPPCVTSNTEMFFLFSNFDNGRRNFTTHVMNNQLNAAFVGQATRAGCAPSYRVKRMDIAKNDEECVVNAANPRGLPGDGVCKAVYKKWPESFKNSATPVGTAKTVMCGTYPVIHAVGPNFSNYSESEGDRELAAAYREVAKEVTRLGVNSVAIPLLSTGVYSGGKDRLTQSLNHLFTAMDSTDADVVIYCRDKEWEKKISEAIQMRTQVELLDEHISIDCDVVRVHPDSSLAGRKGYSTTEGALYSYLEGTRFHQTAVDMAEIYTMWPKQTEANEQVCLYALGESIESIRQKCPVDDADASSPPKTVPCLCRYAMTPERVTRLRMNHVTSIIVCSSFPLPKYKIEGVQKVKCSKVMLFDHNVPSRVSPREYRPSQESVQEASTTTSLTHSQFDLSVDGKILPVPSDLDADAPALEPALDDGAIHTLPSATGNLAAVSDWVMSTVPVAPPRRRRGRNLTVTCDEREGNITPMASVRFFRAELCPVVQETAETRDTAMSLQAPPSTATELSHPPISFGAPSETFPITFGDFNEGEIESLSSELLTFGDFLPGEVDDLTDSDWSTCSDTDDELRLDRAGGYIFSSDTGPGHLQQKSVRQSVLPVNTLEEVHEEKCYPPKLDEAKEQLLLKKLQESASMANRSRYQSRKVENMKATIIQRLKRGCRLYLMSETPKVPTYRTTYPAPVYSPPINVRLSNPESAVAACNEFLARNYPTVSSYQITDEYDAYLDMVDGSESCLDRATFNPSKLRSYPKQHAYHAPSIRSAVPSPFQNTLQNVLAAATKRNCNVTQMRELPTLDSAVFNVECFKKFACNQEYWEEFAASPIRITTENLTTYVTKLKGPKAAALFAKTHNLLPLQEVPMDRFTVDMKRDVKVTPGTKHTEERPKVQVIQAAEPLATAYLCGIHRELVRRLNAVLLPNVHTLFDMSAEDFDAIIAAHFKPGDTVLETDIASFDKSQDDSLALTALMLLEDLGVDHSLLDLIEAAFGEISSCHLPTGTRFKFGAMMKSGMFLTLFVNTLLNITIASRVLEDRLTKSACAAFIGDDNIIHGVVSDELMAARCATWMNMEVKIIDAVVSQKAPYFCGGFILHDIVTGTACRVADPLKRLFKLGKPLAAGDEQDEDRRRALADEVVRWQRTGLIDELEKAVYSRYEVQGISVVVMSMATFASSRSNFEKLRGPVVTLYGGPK
UniProt P00784: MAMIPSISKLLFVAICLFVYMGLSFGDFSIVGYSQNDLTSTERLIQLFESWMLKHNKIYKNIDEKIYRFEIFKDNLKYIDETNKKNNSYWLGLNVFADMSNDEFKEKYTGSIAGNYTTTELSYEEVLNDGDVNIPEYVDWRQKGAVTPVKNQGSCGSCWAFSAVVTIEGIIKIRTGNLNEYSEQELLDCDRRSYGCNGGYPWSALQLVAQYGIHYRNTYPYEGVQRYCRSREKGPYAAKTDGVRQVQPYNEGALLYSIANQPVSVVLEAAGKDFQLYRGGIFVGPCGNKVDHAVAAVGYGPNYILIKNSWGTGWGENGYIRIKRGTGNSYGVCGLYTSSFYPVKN

SMILES: Cc1cc(Nc2ncnc3ccc(-c4ccc(CNCCS(C)(=O)=O)o4)cc23)ccc1Oc1ccn2ncnc2c1
- Potency [1]: inconclusive: 18.3 µM [inhibitor, partial curve]
- Potency [2]: inconclusive: 8.19 µM [inhibitor, single point]

SMILES: CO[C@H]1c2cc(C(C)C)c(O)c(O)c2[C@@]23CCCC(C)(C)C2[C@@H]1OC3=O (stereo partly specified)
- Potency (Papain (Carica papaya)): inconclusive: 8.03 µM [inhibitor, partial curve, poor fit]

SMILES: Cc1cccc2c3c(ccc12)C1=C(C(=O)C3=O)[C@@H](C)CO1
- Potency [1]: inconclusive: 16.3 µM [inhibitor, partial curve]
- Potency (Papain (Carica papaya)): inconclusive: 20.6 µM [inhibitor, partial curve]

SMILES: CC(=O)OC(CSC1CCC(=O)OC(C)CCC(=O)C1)C(=O)O (stereo unspecified)
- Potency [1]: inactive
- Potency [3]: inconclusive: 6.97 µM [inhibitor, partial curve]

SMILES: Cn1cc(C(=O)N2CCc3[nH]cnc3C2C2CCN(C(=O)C3CCOCC3)CC2)cn1 (stereo unspecified)
- Potency [1]: inconclusive: 16.3 µM [inhibitor, partial curve]
- Potency [3]: inconclusive: 10 µM [inhibitor, partial curve]

SMILES: CCOC(=O)[C@H]1O[C@@H]1C(=O)N[C@@H](CC(C)C)C(=O)NCCC(C)C
- Potency (Papain (Carica papaya)): active: 1.16 µM

SMILES: CCN1CCN(c2ncc3c(n2)CCN(Cc2sccc2C)C3)CC1
- Potency [1]: inconclusive: 14.6 µM [inhibitor, partial curve]
- Potency [3]: inconclusive: 11.3 µM [inhibitor, single point]

SMILES: O=C1c2ccccc2NC(c2ccc(-c3ccc(C(F)(F)F)cc3)o2)N1O (stereo unspecified)
- Potency [1]: inactive
- Potency [3]: inactive

SMILES: COCCCNC(=O)c1cnn(-c2ccc(F)cc2F)c1C1CCNCC1
- Potency [1]: inconclusive: 18.3 µM [inhibitor, partial curve]
- Potency [3]: inconclusive: 14.2 µM [inhibitor, partial curve, poor fit]
- Potency [2]: inconclusive: 9.19 µM [inhibitor, full curve]

SMILES: C=CCC/C=C/C#CCCCCCCCC[C@H]1C(=O)O[C@H](C)[C@@H]1O
- Potency (Papain (Carica papaya)): inconclusive: 12.7 µM [inhibitor, partial curve]
- Potency [3]: inconclusive: 4.4 µM [inhibitor, partial curve]

SMILES: CCOC(=O)c1cccc(CNc2ccc(N(C)C(=O)Nc3ccccc3)cc2)c1
- Potency (Papain (Carica papaya)): inconclusive: 9.19 µM [inhibitor, partial curve, poor fit]

SMILES: CC1(C)OC(=O)CC(O)C2(C)C1CC(=O)C1(C)C2C(O)CC2(C)C(c3ccoc3)OC(=O)C3OC321 (stereo unspecified)
- Potency (Papain (Carica papaya)): inactive

Reference: PubChem BioAssay (NCATS)
